In US20210236580A1, “Methods and Compositions for Mitigating Symptoms of Acute Respiratory Distress Syndrome” (Sytheon Ltd, priority 2020, published 2021):
For at least one compound, name, drawing or mass did not settle the structure.

How the values were obtained:
interferon alpha = assay: IFN-α in medium of LPS-exposed 3D ciliated airway tissues, sandwich ELISA; type: cell-based, human; settings: higher concentration (100 μg/ml) / higher combination; in words
IL-8 = IL-8 secretion in LPS-induced human bronchial epithelial cells (HBEpC), ELISA; type: cell-based; settings: TC at all levels tested, in words
Excerpt: (§1) HBEpC provide an excellent model for all aspects of respiratory epithelial function and diseases, particularly those related to airway viral/bacterial infections, including tissue repair mechanisms, signaling changes and potential treatments relevant to lung injuries, mechanical and oxidative stress, inflammation, etc., including that arising from or associated with pulmonary diseases and smoking. In this study, the inflammatory cytokines IL-6 and IL-8 were induced through pretreatment of the HBEpC with lipopolysaccharide (Cat #L2630, Sigma, Saint Louis, Mo.). After 3 hours of treatment the test and control materials were added to the cultures which were then incubated at […] for 48 hrs. Thereafter the IL-8 and IL-6 levels of the test cultures were measured by ELISA.
(§2) Each experimental condition and control were assayed at least in six replicates and statistical significance assessed with paired Student test. In conducting the assay, total insoluble proteins were quantified to determine the effect of the test materials on cell proliferation according to the method described by Voigt (Voigt, W. Sulforhodamine B assay and chemosensitivity. Methods Mol Med. 2005; 110:39-48).

IL-6 [1] = settings: mice; cited from earlier work
IL-6 [2] = assay: IL-6 secretion in LPS-induced human bronchial epithelial cells (HBEpC), ELISA; type: cell-based; settings: TC at the higher levels, in words
Excerpt: as §1, §2

interferon gamma = assay: IFN-γ in medium of LPS-exposed 3D ciliated airway tissues, sandwich ELISA; type: cell-based, human; settings: in words

## C[C@@H]1C[C@H]2[C@@H]3CCC4=CC(=O)C=C[C@]4(C)[C@@]3(F)[C@@H](O)C[C@]2(C)[C@@]1(O)C(=O)CO [Dexamethasone]
Interferon alpha
  interferon alpha response: failed to induce an interferon response
IL-8
  inhibitory effect on the secretion of IL-8: did not show any positive results
IL-6 [1]
  acute phase symptoms induced by AAV-IL-6: partially prevented
  organ damages induced by AAV-IL-6: alleviated
IL-6 [2]
  inhibitory effect on the secretion of IL-6: did not show any positive results
Interferon gamma
  interferon gamma response: did induce the production of interferon gamma
